Data on one molecule can be found in article doi:10.1101/2022.01.28.478199.

The chains behind the UniProt entries cited, without tags or fusion partners. Where a name states a change or a piece, a line headed by the entry shows the natural chain unless it says otherwise. Residues count along the entry.
UniProt P33416, residues 45-811: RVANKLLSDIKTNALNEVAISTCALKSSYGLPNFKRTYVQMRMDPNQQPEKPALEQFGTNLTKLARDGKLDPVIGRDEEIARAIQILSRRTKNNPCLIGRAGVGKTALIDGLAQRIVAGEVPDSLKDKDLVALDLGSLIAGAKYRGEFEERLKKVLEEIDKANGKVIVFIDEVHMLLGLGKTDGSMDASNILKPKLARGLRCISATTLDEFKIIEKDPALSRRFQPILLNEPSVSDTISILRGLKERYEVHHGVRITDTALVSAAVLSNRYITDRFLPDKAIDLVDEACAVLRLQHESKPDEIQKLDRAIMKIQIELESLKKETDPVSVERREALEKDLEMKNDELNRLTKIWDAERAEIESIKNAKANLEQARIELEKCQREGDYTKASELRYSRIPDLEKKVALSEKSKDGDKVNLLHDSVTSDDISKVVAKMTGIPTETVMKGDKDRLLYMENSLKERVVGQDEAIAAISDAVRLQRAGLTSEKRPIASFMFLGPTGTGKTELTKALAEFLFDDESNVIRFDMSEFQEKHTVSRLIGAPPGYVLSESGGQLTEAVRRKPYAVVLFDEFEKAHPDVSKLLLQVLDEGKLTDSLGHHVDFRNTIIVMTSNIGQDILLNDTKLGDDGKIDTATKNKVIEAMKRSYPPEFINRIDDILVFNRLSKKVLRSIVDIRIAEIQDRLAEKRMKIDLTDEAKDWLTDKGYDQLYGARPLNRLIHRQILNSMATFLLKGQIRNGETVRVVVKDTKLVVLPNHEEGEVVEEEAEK

Assay [1] concerns the target Hsp78-6xHis (wild-type Hsp78 with a C-terminal 6x polyhistidine-tag) (S. cerevisiae) (UniProt P33416). The experiment in a line: affinity purification with mass spectrometry.
Assay [2] deals with Hsp78TR-6xHis (Hsp78 E216Q/E614Q Walker B mutant with a C-terminal 6x polyhistidine-tag) (S. cerevisiae) (UniProt P33416). In words: affinity purification with mass spectrometry.

No constants are given. Whether binding was seen depends on the method and setting. Binding seen in cells or lysates may run through a third protein. Here binding means that the protein was enriched with, or labelled near, the bait; the list need not be complete. No binding means not detected with the bait.

B1: Om45 (protein, UniProt P16547 1-393)
chain: MSSRIIVGSAALAAAITASIMVREQKAKGQRREGNVSAYYNGQEYGSSAPPQLGKLHNIKQGIKEDALSLKDALLGVSQKAREEAPKVTKRVISPEEDAQTRKQLGQKAKDSSSQSIFNWGFSEAERRKAIAIGEFDTAKKRFEEAVDRNEKELLSTVMREKKAALDRASIEYERYGRARDFNELSDKLDQQERNSNPLKRLLKNNTGDANTEEAAARSVQGWGDTAQEFGREELEEAKRNASSEPSEAQKRLDELKKIKEKGWFGYNKGEQSEQQIAERVARGLEGWGETAAQLSKDEMDDLRWNYENSKKQLDKNVSDAMDSLSKAKEDLKQYGSHWWSGWTSKVDNDKQALKDEAQKKYDEALKKYDEAKNKFKEWNDKGDGKFWSSKKD
With B1, the binding result in assay [1] and in assay [2] was “no binding” throughout.
